Measurements reported in PubChem BioAssay AID504793 (Drosophila RNAi Screening Center, 2011)

Aim: 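Genes required for cells to halt at G2/M after double-strand DNA breaks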 (primary screen)
System: Drosophila S2R+ cells
Reagent: long dsRNA against Drosophila genes, about 0.25 µg dsRNA per well
Timing: 4 days of dsRNA, then 4 hours of drug before read-out
Conditions: doxorubicin 0.5 µM for 4 hours to cause double-strand breaks, in cells also given a low, harmless dose of dsRNA against nbs to sensitise the assay
Read-out: 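Per-well count of mitotic cells stained for phospho-histone H3 after doxorubicin exposure, used as mitotic index; counts are raw and not normalised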
Scale: mitotic cells: higher = more cells in mitosis, weaker G2 arrest
Active means: 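a call needs confirmation in secondary tests, with other dsRNAs and a check of mitotic timing without damage, not just a high primary count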
Meaning of the calls: active = confirmed in follow-up tests; inactive = not confirmed
The screen tested about 23,000 reagents; shown is an unselected part of those with a known target gene and a result. Of all reagents, 62 (0.27%) got an active call. 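Calls come from follow-up tests whose scores are not deposited, so confirmed genes may have low counts here; counts are not normalised per plate.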 Raw values are not corrected between plates. Entries without a mark were called inactive. Reagents against one gene are numbered here.

The opening 4 records as a preview:
gene	reagent no.	mitotic cells, replicate 1	mitotic cells, replicate 2
CG9967	1	8	8
CG9967	2	4	
Cyp6a13	1	4	
CG5217	1	6	

Results, from the first entry:
gene	reagent no.	mitotic cells, replicate 1	mitotic cells, replicate 2
CG9967	1	8	8
CG9967	2	4	
Cyp6a13	1	4	
CG5217	1	6	
nej	1	11	
nej	2	10	
nej	3	10	
nej	4	7	
fu	1	5	
fu	2	6	
Osi23	1	13	
Pex11c	1	10	
ssp7	1	4	
CG18596	1	8	
saturn	1	11	
saturn	2	12	
Ero1L	1	9	
NiPp1	1	4	
Rab3-GAP	1	4	
Rab3-GAP	2	4	
kmg	1	5	
kdn	1	14	
D19B	1	7	
D19B	2	6	
Actn3	1	6	
CG13955	1	3	
CG10154	1	2	
geminin	1	7	
geminin	2	6	
Cam	1	7	
Cam	2	19	
CG2017	1	6	
RNaseX25	1	6	
RNaseX25	2	8	
bel	1	10	
bel	2	11	
CG13198	1	5	
bon	1	5	
CG5556	1	3	
CG11779	1	8	
Atg14	1	4	
Atg14	2	6	
CycB3	1	18	
CG14316	1	9	
CG32240	1	15	
